In PubChem BioAssay AID248 (DTP/NCI, 2004):
The list shows only some results of the screen, not a fair sample: it is rich in T/C values a quarter to a half above the control, in often repeated tests (any T/C) and in doses without a T/C. Further doses and runs are listed elsewhere. T/C: endpoint of the treated group in % of that of the vehicle group. Some entries give survivors of the animals treated and no T/C: the source files T/C as zero there, which appears to mark a toxic dose or a test without result, not a measured value. Some doses without a T/C left all or most animals alive at the check, yet need not have been tolerated: the source hardly ever lists a survival T/C far under the control, and the zero likely stands for such cases as well. Counts of survivors are from the toxicity check (mostly the fifth day) where no day follows; animals may have died later. Schedule codes are those of the source, read here as Q, the interval in days (D) or hours (H), X, the number of doses. Some schedules carry Z or #; the key to these is not given. Some doses were run more than once; the results are listed from low to high. Where survival is the endpoint, the PubChem record calls one and a half times the control and up active, and a quarter to a half above the control has no call in these data; cut-offs in other NCI protocols can differ.

System: L1210 leukemia ip in BDF1 mice, survival T/C
Assay: NCI In Vivo Anticancer Drug Screen. Data for tumor model L1210 Leukemia (intraperitoneal) in B6D2F1 (BDF1) mice
Settings: T/C endpoint: mean survival time, higher T/C = longer survival
[1] = dose: 200.0 mg/kg/injection, schedule: Q01DX001 (ip), vehicle: saline with Tween-80
[2] = dose: 400.0 mg/kg/injection, schedule: Q01DX001 (ip), vehicle: saline with Tween-80
[3] = dose: 200.0 mg/kg/injection, schedule: Q01DX001 (ip), vehicle: saline
[4] = dose: 400.0 mg/kg/injection, schedule: Q01DX001 (ip), vehicle: saline
[5] = dose: 200.0 mg/kg/injection, schedule: Q01DX009 (ip), vehicle: Klucel (hydroxypropylcellulose) (HPC)
[6] = dose: 400.0 mg/kg/injection, schedule: Q04DX003 (ip), vehicle: saline

Structure (SMILES): Nc1ccc(CCCCOc2ccccc2)cc1
- survivor count [1]: 2 of 6
- survivor count [2]: 1 of 6

Structure (SMILES): Cc1cc(C)cc(OC(=O)Nc2ccccc2C)c1
- survivor count (dose: 400.0 mg/kg/injection, schedule: Q04DX002 (ip), vehicle: saline with Tween-80): 1 of 3

Structure (SMILES): COc1ccc(C(=S)N(C)NC(=O)CC(=O)NN(C)C(=S)c2ccc(OC)cc2)cc1
- survivor count (dose: 400.0 mg/kg/injection, schedule: Q01DX009 (ip), vehicle: gum acacia): 2 of 6

Structure (SMILES): N#CCCP(CCC#N)CCCCP(CCC#N)CCC#N
- survivor count (dose: 100.0 mg/kg/injection, schedule: Q01DX001 (ip), vehicle: saline with Tween-80): 0 of 6
- survivor count [1]: 0 of 6
- survivor count [2]: 0 of 6

Structure (SMILES): N#C[SH2+].N#C[SH2+].N#C[SH2+].N#C[SH2+].[Cu+2].c1ccc(C[P+](c2ccccc2)(c2ccccc2)c2ccccc2)cc1
- survivor count (dose: 12.0 mg/kg/injection, schedule: Q01DX009 (ip), vehicle: saline): 4 of 6
- survivor count (dose: 25.0 mg/kg/injection, schedule: Q01DX009 (ip), vehicle: saline): 4 of 6
- survivor count (dose: 100.0 mg/kg/injection, schedule: Q01DX001 (ip), vehicle: saline): 0 of 6
- survivor count [3]: 0 of 6
- survivor count [4]: 0 of 6

Structure (SMILES): CS(=O)(=O)Oc1cc(=O)oc2ccccc12
- survivor count [5]: 1 of 3

Structure (SMILES): c1ccc(CCN2CCC(CCc3c[nH]c4ccccc34)CC2)cc1
- survivor count [3]: 0 of 4
- survivor count [4]: 0 of 4
- survivor count (dose: 600.0 mg/kg/injection, schedule: Q01DX001 (ip), vehicle: saline): 1 of 4
- survivor count (dose: 800.0 mg/kg/injection, schedule: Q01DX001 (ip), vehicle: saline): 0 of 4

Structure (SMILES): CCN(CC)CCCC(C)Nc1ccnc(/C=C/c2ccc(Br)cc2)c1 (stereo not drawn)
- survivor count (dose: 25.0 mg/kg/injection, schedule: Q04DX003 (ip), vehicle: Klucel (hydroxypropylcellulose) (HPC)): 6 of 6
- survivor count (dose: 100.0 mg/kg/injection, schedule: Q04DX003 (ip), vehicle: Klucel (hydroxypropylcellulose) (HPC)): 6 of 6
- survivor count [3]: 3 of 6
- survivor count [4]: 1 of 6

Structure (SMILES): CC12CCC(=O)C=C1CCC1C2CCC2(C)C(C(=O)COC(=O)Cc3ccc(N(CCCl)CCCl)cc3)CCC12 (stereo not drawn)
- T/C (dose: 100.0 mg/kg/injection, schedule: Q01DX009 (ip), vehicle: Klucel (hydroxypropylcellulose) (HPC)): 139 % of control
- T/C [5]: 146 % of control

Structure (SMILES): N#CCCNc1ccc(NC(=O)C(F)(F)F)cc1
- survivor count (dose: 200.0 mg/kg/injection, schedule: Q04DX003 (ip), vehicle: saline): 1 of 6
- survivor count [6]: 0 of 6

Structure (SMILES): COc1cc2cc3c4ccccc4cc[n+]3c(C)c2cc1OC (tested in a mixture with another compound)
- survivor count (dose: 80.0 mg/kg/injection, schedule: Q01DX009 (ip), vehicle: saline): 4 of 6

Structure (SMILES): O=C(O)C(=O)c1ccc(O)cc1O
- survivor count [4]: 2 of 4

Structure (SMILES): Cn1c(=S)sc2ccccc21
- survivor count (dose: 100.0 mg/kg/injection, schedule: Q04DX003 (ip), vehicle: saline with Tween-80): 0 of 3
- survivor count (dose: 200.0 mg/kg/injection, schedule: Q04DX003 (ip), vehicle: Klucel (hydroxypropylcellulose) (HPC)): 0 of 3
- survivor count (dose: 400.0 mg/kg/injection, schedule: Q04DX003 (ip), vehicle: Klucel (hydroxypropylcellulose) (HPC)): 0 of 3

Structure (SMILES): CCCCCCCCCCCCC(=O)[O][Hg][c]1ccccc1
- survivor count (dose: 37.5 mg/kg/injection, schedule: Q01DX001 (ip), vehicle: steroid suspending solution): 1 of 6
- survivor count (dose: 75.0 mg/kg/injection, schedule: Q01DX001 (ip), vehicle: steroid suspending solution): 1 of 6
- survivor count (dose: 150.0 mg/kg/injection, schedule: Q01DX001 (ip), vehicle: steroid suspending solution): 0 of 6
- survivor count (dose: 300.0 mg/kg/injection, schedule: Q01DX001 (ip), vehicle: steroid suspending solution): 0 of 6

Structure (SMILES): CN(N=O)C(=O)NCCOC(=O)N(C)N=O
- survivor count (dose: 25.0 mg/kg/injection, schedule: Q01DX Z (ip), vehicle: carboxymethylcellulose (CMC)): 6 of 6
- survivor count (dose: 50.0 mg/kg/injection, schedule: Q01DX Z (ip), vehicle: carboxymethylcellulose (CMC)): 2 of 6
- survivor count (dose: 100.0 mg/kg/injection, schedule: Q01DX Z (ip), vehicle: carboxymethylcellulose (CMC)): 0 of 6

Structure (SMILES): Cc1csc[n+]1Cc1ccc([N+](=O)[O-])cc1
- survivor count [3]: 0 of 6
- survivor count [4]: 0 of 6

Structure (SMILES): NC(N)=NN=C1CCC(C2CCCCC2)CC1 (stereo not drawn)
- survivor count (dose: 240.0 mg/kg/injection, schedule: Q01DX Z (ip), vehicle: methylcellulose (MC)): 0 of 6
- survivor count (dose: 240.0 mg/kg/injection, schedule: Q01DX Z (oral), vehicle: methylcellulose (MC)): 6 of 6
- survivor count (dose: 420.0 mg/kg/injection, schedule: Q01DX Z (ip), vehicle: methylcellulose (MC)): 1 of 6
- survivor count (dose: 600.0 mg/kg/injection, schedule: Q01DX Z (ip), vehicle: methylcellulose (MC)): 0 of 6

Structure (SMILES): C[N+]1(C)CCOC(O)(c2ccccc2)C1 (stereo not drawn)
- survivor count (dose: 50.0 mg/kg/injection, schedule: Q01DX001 (ip), vehicle: saline): 0 of 4
- survivor count [3]: 0 of 4
- survivor count [4]: 0 of 4

Structure (SMILES): Cc1cc(=O)c2cccc(-c3ccccc3)c2[nH]1
- survivor count [6]: 3 of 6

Structure (SMILES): CCCCCCCC/C=C\CCCCCCCC(=O)[O][Sn]([CH2]CCC)([CH2]CCC)[CH2]CCC
- survivor count (dose: 25.0 mg/kg/injection, schedule: Q01DX009 (ip), vehicle: saline with Tween-80): 0 of 3
- survivor count (dose: 50.0 mg/kg/injection, schedule: Q01DX009 (ip), vehicle: saline with Tween-80): 0 of 3
- survivor count (dose: 100.0 mg/kg/injection, schedule: Q01DX009 (ip), vehicle: saline with Tween-80): 0 of 3 and 0 of 6
- survivor count (dose: 200.0 mg/kg/injection, schedule: Q01DX009 (ip), vehicle: saline with Tween-80): 0 of 6
- survivor count (dose: 400.0 mg/kg/injection, schedule: Q01DX009 (ip), vehicle: saline with Tween-80): 0 of 6

Structure (SMILES): CC(C)=NNC(=O)NO
- survivor count (dose: 150.0 mg/kg/injection, schedule: Q01DX001 (ip), vehicle: saline): 3 of 6
- survivor count (dose: 300.0 mg/kg/injection, schedule: Q01DX001 (ip), vehicle: saline): 0 of 6

Structure (SMILES): Cn1cc(C=O)c2nccnc21
- survivor count (dose: 300.0 mg/kg/injection, schedule: Q01DX009 (ip), vehicle: saline): 0 of 6
- survivor count [6]: 0 of 6

Structure (SMILES): O=c1c(N=Nc2ccc(Br)cc2)c(O)n(-c2ccccc2Cl)c(=S)n1-c1ccccc1
- T/C (dose: 37.5 mg/kg/injection, schedule: Q01DX001 (ip), vehicle: Klucel (hydroxypropylcellulose) (HPC)): 125 % of control

Structure (SMILES): CC(Oc1ccccc1)C(=O)NC(=S)Nc1cc(C(F)(F)F)ccc1Cl (stereo not drawn)
- survivor count (dose: 400.0 mg/kg/injection, schedule: Q01DX009 (ip), vehicle: other): 3 of 3

Structure (SMILES): O=C1OCC/C1=C1/CCOC1
- survivor count (dose: 200.0 mg/kg/injection, schedule: Q01DX009 (ip), vehicle: saline): 0 of 3

Structure (SMILES): CCC(=O)Nc1cccc(C)c1C
- survivor count (dose: 400.0 mg/kg/injection, schedule: Q01DX009 (ip), vehicle: Klucel (hydroxypropylcellulose) (HPC)): 5 of 6

Structure (SMILES): CC(=O)OCCn1c2ccccc2c2c(C)c3cnccc3c(C)c21
- T/C (dose: 75.0 mg/kg/injection, schedule: Q04DX003 (ip), vehicle: saline): 125 % of control
- survivor count (dose: 450.0 mg/kg/injection, schedule: Q04DX003 (ip), vehicle: saline with Tween-80): 4 of 6

Structure (SMILES): ClCCNCc1ccc(Nc2ccnc3cc(Cl)ccc23)cc1
- survivor count (dose: 150.0 mg/kg/injection, schedule: Q01DX001 (ip), vehicle: carboxymethylcellulose (CMC)): 2 of 6
- survivor count (dose: 300.0 mg/kg/injection, schedule: Q01DX001 (ip), vehicle: carboxymethylcellulose (CMC)): 0 of 6

Structure (SMILES): CCCCCSc1nc(N)nc2nc[nH]c12
- T/C (dose: 100.0 mg/kg/injection, schedule: Q01DX Z (ip), vehicle: methylcellulose (MC)): 148 % of control
- survivor count (dose: 400.0 mg/kg/injection, schedule: Q01DX009 (ip), vehicle: saline): 3 of 6
- survivor count (dose: 600.0 mg/kg/injection, schedule: Q01DX009 (ip), vehicle: saline): 2 of 6
- survivor count (dose: 800.0 mg/kg/injection, schedule: Q01DX009 (ip), vehicle: saline): 1 of 6
